Assay [1] has as its target T1, HA-MmSTING (STING of Mus musculus), expressed in HEK 293T (Mus musculus) (UniProt Q3TBT3).
T1 sequence: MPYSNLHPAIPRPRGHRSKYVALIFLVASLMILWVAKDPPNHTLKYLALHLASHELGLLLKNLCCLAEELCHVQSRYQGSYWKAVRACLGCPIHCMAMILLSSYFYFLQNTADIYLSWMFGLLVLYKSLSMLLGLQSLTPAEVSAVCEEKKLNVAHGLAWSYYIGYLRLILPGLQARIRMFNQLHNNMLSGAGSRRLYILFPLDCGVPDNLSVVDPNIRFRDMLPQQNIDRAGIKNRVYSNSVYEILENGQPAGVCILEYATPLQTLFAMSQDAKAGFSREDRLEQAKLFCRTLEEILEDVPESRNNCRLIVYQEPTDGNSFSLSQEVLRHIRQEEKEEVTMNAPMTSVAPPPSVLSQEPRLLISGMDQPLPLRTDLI
As to the kind of experiment: co-IP; HA-immunoprecipitation (anti-HA agarose) on whole-cell extracts of HEK 293T transiently co-expressing HA-STING and FADS-FLAG; TENTG-150 buffer, 4 h at 4 °C; HA peptide elution; Western blot. Background: Immunoblotting shows a protein as a band on a membrane.

Sequences of proteins named here, by UniProt entry; tags and fusion partners are left off. A change or cut given only in a name is not applied to a line headed by its entry.
UniProt Q86WV6: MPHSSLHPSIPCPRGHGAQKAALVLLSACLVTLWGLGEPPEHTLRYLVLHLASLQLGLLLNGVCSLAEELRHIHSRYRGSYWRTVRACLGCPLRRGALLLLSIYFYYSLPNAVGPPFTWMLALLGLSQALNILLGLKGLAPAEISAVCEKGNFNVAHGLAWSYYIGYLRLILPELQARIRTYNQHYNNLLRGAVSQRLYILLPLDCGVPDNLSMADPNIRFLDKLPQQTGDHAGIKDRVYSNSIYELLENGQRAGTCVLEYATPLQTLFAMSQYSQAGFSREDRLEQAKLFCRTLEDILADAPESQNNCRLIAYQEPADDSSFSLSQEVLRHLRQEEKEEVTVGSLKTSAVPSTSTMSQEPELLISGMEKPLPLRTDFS

Assay [2] concerns the target DmSTING (STING homolog of Drosophila melanogaster) (Drosophila melanogaster). Nature of the assay: co-IP; co-immunoprecipitation of HA-tagged STING homologs and mutants with MmFADS2 (Supplementary Fig. 5B-F); cells and precipitated tag not told in the text shown.
Assay [3] concerns the target HA-tagged CgSTING (STING homolog of the mollusk Crassostrea gigas) (Crassostrea gigas). The assay is described as above.
The target in assay [4] is HA-tagged DrSTINGΔCTT (DrSTING with the C-terminal tail ablated) (Danio rerio). Described as above.
The target in assay [5] is HA-tagged FsSTING (STING homolog of the bacterium Flavobacteriaceae sp.) (Flavobacteriaceae sp.). The assay is described as above.
Assay [6] addresses HA-tagged MmSTINGΔCTT (MmSTING with the C-terminal tail ablated) (Mus musculus). The assay is described as above.
Assay [7] has as its target HA-MbSTING (STING homolog of Monosiga brevicollis), expressed in HEK 293T (Monosiga brevicollis). As to the kind of experiment: co-IP; HA-immunoprecipitation (anti-HA agarose) on whole-cell extracts of HEK 293T transiently co-expressing HA-STING and FADS-FLAG; TENTG-150 buffer, 4 h at 4 °C; HA peptide elution; Western blot.
Assay [8] concerns the target HA-MmSTINGΔCTTΔCBD (MmSTING mutant comprising the TMD alone) (Mus musculus). The assay is described as above.
In assay [9] the target is HA-XtSTING (STING of Xenopus tropicalis), expressed in HEK 293T (Xenopus tropicalis). The description is as above.
The target of assay [10] is HA-MbSTING stably expressed in MEF Sting-/- (MEF^MbSTING) (Monosiga brevicollis). As to the kind of experiment: co-IP; HA-immunoprecipitation on whole-cell extracts of MEF Sting-/- stably expressing HA-STING homologs; endogenous FADS2 detected by Western blot; TENTG-150 buffer, HA peptide elution.
Assay [11] addresses HA-XtSTING stably expressed in MEF Sting-/- (MEF^XtSTING) (Xenopus tropicalis). The description is as above.
Assay [12] addresses HA-HsSTING-R232H (human STING haplotype R232H), expressed in HEK 293T (Homo sapiens) (UniProt Q86WV6). As to the kind of experiment: co-IP; HA-immunoprecipitation (anti-HA agarose) on whole-cell extracts of HEK 293T transiently co-expressing HA-STING and FADS-FLAG; TENTG-150 buffer, 4 h at 4 °C; HA peptide elution; Western blot.
Assay [13] concerns the target HA-HsSTING-R232H-∆CTT (∆342-379), expressed in HEK 293T (Homo sapiens) (UniProt Q86WV6). The description is as above.
Assay [14] concerns the target HA-HsSTING-AQ stably expressed in THP-1 STING-/- (THP-1^HsSTING-AQ) (Homo sapiens) (UniProt Q86WV6). Nature of the assay: co-IP; HA-immunoprecipitation on whole-cell extracts of THP-1 STING-/- stably expressing HA-HsSTING haplotypes or mutant; FADS2 detected by Western blot.
For assay [15], the target named is HA-HsSTING-HAQ stably expressed in THP-1 STING-/- (THP-1^HsSTING-HAQ) (Homo sapiens) (UniProt Q86WV6). Described as above.
For assay [16], the target named is HA-HsSTING-R232H stably expressed in THP-1 STING-/- (THP-1^HsSTING-R232H) (Homo sapiens) (UniProt Q86WV6). The assay is described as above.

Results are given in words; binding and its absence hold for the method and conditions named. Binding seen in cells or lysates may run through a third protein. For some assays here: Binding calls can cover weak binding; strength is not graded here. For some assays here: Tags and fused reporters may be left off the sequences shown.

For “XtFADS2-FLAG (fatty acid desaturase 2 of Xenopus tropicalis) (enzyme)”, the binding entry in [1] is recorded as “binds weakly”.

“MbFADS-FLAG (FADS-like protein of Monosiga brevicollis) (enzyme)”: the binding entry in assay [1] was “binds”.

B1: MmFADS2-FLAG (fatty acid desaturase 2 of Mus musculus) (enzyme, UniProt Q9Z0R9 1-444)
chain: MGKGGNQGEGSTERQAPMPTFRWEEIQKHNLRTDRWLVIDRKVYNVTKWSQRHPGGHRVIGHYSGEDATDAFRAFHLDLDFVGKFLKPLLIGELAPEEPSLDRGKSSQITEDFRALKKTAEDMNLFKTNHLFFFLLLSHIIVMESLAWFILSYFGTGWIPTLVTAFVLATSQAQAGWLQHDYGHLSVYKKSIWNHVVHKFVIGHLKGASANWWNHRHFQHHAKPNIFHKDPDIKSLHVFVLGEWQPLEYGKKKLKYLPYNHQHEYFFLIGPPLLIPMYFQYQIIMTMISRRDWVDLAWAISYYMRFFYTYIPFYGILGALVFLNFIRFLESHWFVWVTQMNHLVMEIDLDHYRDWFSSQLAATCNVEQSFFNDWFSGHLNFQIEHHLFPTMPRHNLHKIAPLVKSLCAKHGIEYQEKPLLRALIDIVSSLKKSGELWLDAYLHK
As for B1, the binding entry in assay [2] was “binds”; in [3] it was “no binding”; in assay [4] it was “binds”; in assay [5], “no binding”; in assay [6] it was “binds”; in assay [7], “binds”. The binding entry in assay [8] and in assay [9] was “binds” each time.

B2: endogenous MmFADS2 (fatty acid desaturase 2) of mouse embryonic fibroblasts (enzyme, UniProt Q9Z0R9 1-444)
chain: MGKGGNQGEGSTERQAPMPTFRWEEIQKHNLRTDRWLVIDRKVYNVTKWSQRHPGGHRVIGHYSGEDATDAFRAFHLDLDFVGKFLKPLLIGELAPEEPSLDRGKSSQITEDFRALKKTAEDMNLFKTNHLFFFLLLSHIIVMESLAWFILSYFGTGWIPTLVTAFVLATSQAQAGWLQHDYGHLSVYKKSIWNHVVHKFVIGHLKGASANWWNHRHFQHHAKPNIFHKDPDIKSLHVFVLGEWQPLEYGKKKLKYLPYNHQHEYFFLIGPPLLIPMYFQYQIIMTMISRRDWVDLAWAISYYMRFFYTYIPFYGILGALVFLNFIRFLESHWFVWVTQMNHLVMEIDLDHYRDWFSSQLAATCNVEQSFFNDWFSGHLNFQIEHHLFPTMPRHNLHKIAPLVKSLCAKHGIEYQEKPLLRALIDIVSSLKKSGELWLDAYLHK
With B2, the binding entry in assay [10] and in assay [11] was “binds” each time.

B3: HsFADS2-FLAG (human fatty acid desaturase 2) (enzyme, UniProt O95864 1-444)
chain: MGKGGNQGEGAAEREVSVPTFSWEEIQKHNLRTDRWLVIDRKVYNITKWSIQHPGGQRVIGHYAGEDATDAFRAFHPDLEFVGKFLKPLLIGELAPEEPSQDHGKNSKITEDFRALRKTAEDMNLFKTNHVFFLLLLAHIIALESIAWFTVFYFGNGWIPTLITAFVLATSQAQAGWLQHDYGHLSVYRKPKWNHLVHKFVIGHLKGASANWWNHRHFQHHAKPNIFHKDPDVNMLHVFVLGEWQPIEYGKKKLKYLPYNHQHEYFFLIGPPLLIPMYFQYQIIMTMIVHKNWVDLAWAVSYYIRFFITYIPFYGILGALLFLNFIRFLESHWFVWVTQMNHIVMEIDQEAYRDWFSSQLTATCNVEQSFFNDWFSGHLNFQIEHHLFPTMPRHNLHKIAPLVKSLCAKHGIEYQEKPLLRALLDIIRSLKKSGKLWLDAYLHK
Regarding B3, the binding entry in assay [12] and in [13] was “binds” each time.

B4: FADS2 of THP-1 human myeloid cells (enzyme, UniProt O95864 1-444)
chain: MGKGGNQGEGAAEREVSVPTFSWEEIQKHNLRTDRWLVIDRKVYNITKWSIQHPGGQRVIGHYAGEDATDAFRAFHPDLEFVGKFLKPLLIGELAPEEPSQDHGKNSKITEDFRALRKTAEDMNLFKTNHVFFLLLLAHIIALESIAWFTVFYFGNGWIPTLITAFVLATSQAQAGWLQHDYGHLSVYRKPKWNHLVHKFVIGHLKGASANWWNHRHFQHHAKPNIFHKDPDVNMLHVFVLGEWQPIEYGKKKLKYLPYNHQHEYFFLIGPPLLIPMYFQYQIIMTMIVHKNWVDLAWAVSYYIRFFITYIPFYGILGALLFLNFIRFLESHWFVWVTQMNHIVMEIDQEAYRDWFSSQLTATCNVEQSFFNDWFSGHLNFQIEHHLFPTMPRHNLHKIAPLVKSLCAKHGIEYQEKPLLRALLDIIRSLKKSGKLWLDAYLHK
Regarding B4, the binding entry in assay [14], in [15] and in assay [16] was “binds” each time.

The record behind these values is article PMC13572491.
